Read-outs that look alike come from different tables or passages of the source. Results are given in words; binding and its absence hold for the method and conditions named. Binding seen in cells or lysates may run through a third protein. Some binding calls cover weakened binding; strength is not graded here. For some assays here: Where a sequence is shown, tags or fusion partners need not be part of it.
What was measured:
[1] = target: ADP-ribosylation factor-like 6 interacting protein 1 (ARL6IP1), endogenously C-terminally tagged (human (endogenous in U-2 OS)) (UniProt Q15041); assay: co-IP; FLAG M2 affinity beads on lysate of U-2 OS cells with endogenously tagged ARL6IP1-FLAG; western blot of endogenous partners or of transfected EGFP-ORP8 or EGFP
[2] = target: ADP-ribosylation factor-like 6 interacting protein 1 (ARL6IP1), endogenously C-terminally tagged (human (endogenous in U-2 OS)) (UniProt Q15041); assay: as above; remark: listed apart in the source

Sequences of proteins named here, by UniProt entry; tags and fusion partners are left off.
UniProt O95197: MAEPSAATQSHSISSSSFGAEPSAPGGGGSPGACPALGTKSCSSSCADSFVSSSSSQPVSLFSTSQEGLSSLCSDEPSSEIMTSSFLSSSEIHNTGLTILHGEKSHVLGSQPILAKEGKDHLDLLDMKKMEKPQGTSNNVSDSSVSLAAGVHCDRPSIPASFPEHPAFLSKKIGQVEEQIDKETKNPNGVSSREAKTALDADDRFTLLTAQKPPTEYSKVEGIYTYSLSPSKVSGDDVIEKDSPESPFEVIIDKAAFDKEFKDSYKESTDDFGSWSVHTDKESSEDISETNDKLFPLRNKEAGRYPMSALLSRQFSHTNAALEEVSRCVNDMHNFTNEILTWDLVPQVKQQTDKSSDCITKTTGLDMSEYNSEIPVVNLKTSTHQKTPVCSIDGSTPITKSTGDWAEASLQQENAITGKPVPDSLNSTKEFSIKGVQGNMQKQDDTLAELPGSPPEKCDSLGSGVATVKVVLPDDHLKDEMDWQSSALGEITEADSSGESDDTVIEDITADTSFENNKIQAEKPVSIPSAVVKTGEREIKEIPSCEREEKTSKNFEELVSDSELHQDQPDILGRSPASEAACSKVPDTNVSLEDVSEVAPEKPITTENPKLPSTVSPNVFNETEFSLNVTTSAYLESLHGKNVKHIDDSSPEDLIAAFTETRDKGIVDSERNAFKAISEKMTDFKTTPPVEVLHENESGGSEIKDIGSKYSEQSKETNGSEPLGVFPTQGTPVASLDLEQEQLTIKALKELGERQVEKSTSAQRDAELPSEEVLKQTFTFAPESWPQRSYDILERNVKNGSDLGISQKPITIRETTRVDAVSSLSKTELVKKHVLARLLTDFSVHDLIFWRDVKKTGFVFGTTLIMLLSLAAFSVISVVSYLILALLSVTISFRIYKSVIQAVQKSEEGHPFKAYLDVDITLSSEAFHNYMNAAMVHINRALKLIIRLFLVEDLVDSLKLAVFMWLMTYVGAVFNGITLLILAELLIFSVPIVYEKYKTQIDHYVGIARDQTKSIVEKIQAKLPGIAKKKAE

| Molecule | binding [1] | binding [2] |
| --- | --- | --- |
| reticulon 3 (RTN3) (from UniProt O95197 1-1032) | binds | – |
| EGFP-ORP8 (protein, UniProt Q9BZF1 1-889) MEGGLADGEPDRTSLLGDSKDVLGPSTVVANSDESQLLTPGKMSQRQGKEAYPTPTKDLHQPSLSPASPHSQGFERGKEDISQNKDESSLSMSKSKSESKLYNGSEKDSSTSSKLTKKESLKVQKKNYREEKKRATKELLSTITDPSVIVMADWLKIRGTLKSWTKLWCVLKPGVLLIYKTQKNGQWVGTVLLNACEIIERPSKKDGFCFKLFHPLEQSIWAVKGPKGEAVGSITQPLPSSYLIIRATSESDGRCWMDALELALKCSSLLKRTMIREGKEHDLSVSSDSTHVTFYGLLRANNLHSGDNFQLNDSEIERQHFKDQDMYSDKSDKENDQEHDESDNEVMGKSEESDTDTSERQDDSYIEPEPVEPLKETTYTEQSHEELGEAGEASQTETVSEENKSLIWTLLKQVRPGMDLSKVVLPTFILEPRSFLDKLSDYYYHADFLSEAALEENPYFRLKKVVKWYLSGFYKKPKGLKKPYNPILGETFRCLWIHPRTNSKTFYIAEQVSHHPPISAFYVSNRKDGFCLSGSILAKSKFYGNSLSAILEGEARLTFLNRGEDYVMTMPYAHCKGILYGTMTLELGGTVNITCQKTGYSAILEFKLKPFLGSSDCVNQISGKLKLGKEVLATLEGHWDSEVFITDKKTDNSEVFWNPTPDIKQWRLIRHTVKFEEQGDFESEKLWQRVTRAINAKDQTEATQEKYVLEEAQRQAARDRKTKNEEWSCKLFELDPLTGEWHYKFADTRPWDPLNDMIQFEKDGVIQTKVKHRTPMVSVPKMKHKPTRQQKKVAKGYSSPEPDIQDSSGSEAQSVKPSTRRKKGIELGDIQSSIESIKQTQEEIKRNIMALRNHLVSSTPATDYFLQQKDYFIIFLLILLQVIINFMFK | – | binds |
